The record followed here is patent publication US20130065226A1, “METHOD OF DETERMINING DOSE AND ADMINISTRATION OF STATIN” (TOHOKU UNIVERSITY, priority 2011, published 2013).

Like-named read-outs stand apart in the source and are kept apart here. A value given as a limit tells only on which side of the number the result lay.

One data set deals with Racl. Kind of data set: Protein expression in HUVEC subcellular fractions: Racl (with or without proteasome inhibitor MG-132). The settings on record: HUVEC nucleus fraction, 24 h; atorvastatin 10 μM, pitavastatin 1 μM.
The nature of data set [1]: Plasma concentration of statins in mice. The class given is in vivo. The settings on record: male, mouse, oral, 24 hours after last of 2-week gavage, atorvastatin 10 mg/kg/day, pravastatin 50 mg/kg/day, read-out: Plasma concentration of statin. The method, then: The present inventors measured the plasma concentrations of statins (atorvastatin and pravastatin) after the 2-week treatment in mice, according to Higashi et al.'s literature (Higashi, M. et al., Circ. Res. 93, 767-775 (2003)).
Furthermore, the present inventors administrated each statin by gavage for 2 weeks from the start of AngII administration ([…], 10 mg/kg/day or pravastatin, 50 mg/kg/day) to the each group of mouse. The present inventors measured plasma concentration of statins 24 hours after the last administration (Table 3).

In the case of `CC(C)c1c(C(=O)Nc2ccccc2)c(-c2ccccc2)c(-c2ccc(F)cc2)n1CC[C@@H](O)C[C@@H](O)CC(=O)O` [atorvastatin], the “intra-nuclear Racl level” value in the data set on Racl was “decreased the intra-nuclear Racl level”. The concentration at 24 h in data set [1] (AngII-infused SmgGDS+/+ mice) and in data set [1] (AngII-infused SmgGDS+/− mice) was less than 0.01 ng/mL throughout.
